Measurements from PubChem BioAssay AID504834 (National Center for Advancing Translational Sciences (NCATS), 2011).
Hit rate of the full screen: of about 320,000 compounds, about 22,000 (6.9%) were called active. The inconclusive results got no clear call from the source; some entries with a clear call stand among them for comparison. Calls come from the whole dose curve; as a rule, active = well fitted inhibition curve with a large enough effect; inconclusive = small, poorly fitted or top-dose-only effect, or another doubt; inactive = no such curve, though single readings can be large or run the other way. Potencies beside an inconclusive call are fits to weak or partial responses and may not hold up.
Potency is the fitted concentration of half-maximal effect.

Assay: Primary qHTS for delayed death inhibitors of the malarial parasite plastid, 96 hour incubation
Settings: P. falciparum luciferase reporter growth; series mostly up to 28.7 µM
Method in brief: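 Cell-based qHTS: luciferase-tagged P. falciparum in erythrocytes (2% hematocrit, 0.05% parasitemia final) incubated with compounds for 96 hours, 37 C, 5% CO2; luciferase detection reagent then added and luminescence measured.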
In the case of `CC[C@H](C)Cc1cn([C@@H](CCCCN)C(=O)NCCCCCCCCCCC(=O)N2CCNCC2)nn1`, the Potency is reported as inconclusive: 16.5 µM [inhibitor, single point].
For `CCOc1ccc(CCNC(=O)Cn2ncn3nc(-c4ccc(OC)cc4)cc3c2=O)cc1OCC`, the Potency was inconclusive: 0.465 µM [inhibitor, full curve, poor fit].
In the case of `O=C(O)Cn1c(SCCOc2ccc(Cl)cc2)nc2ccccc21`, the Potency is reported as inconclusive: 18.5 µM [inhibitor, single point].
For `Cc1cc(C(=O)Nc2c(C)nn(Cc3c(Cl)cccc3Cl)c2C)no1`, the Potency was “inactive”.
For `O=C(O)CCSc1ccc2ccccc2n1`, the Potency was “inactive”.
For `Cc1onc(-c2ccccc2)c1C(=O)N1CCN(c2ccccc2F)CC1`, the Potency was inconclusive: 2.33 µM [inhibitor, full curve].
For `COc1ccc(S(=O)(=O)CCC(=O)NC2CCCCC2)cc1`, the Potency was “inactive”.
With `O=C1C(Cl)=C(N2CCCC2)C(=O)N1c1ccccc1F` the Potency was active: 2.62 µM.
For `COc1ccc(-c2ccc(SCC(=O)c3cccs3)nn2)cc1OC`, the Potency was inconclusive: 2.33 µM [inhibitor, full curve].
For `CN(C)S(=O)(=O)c1ccc(C(=O)Nc2ccc3c(c2)CCC3)cc1`, the Potency was “inactive”.
With `CN(C)CCCN(Cc1cc2cc3c(cc2[nH]c1=O)OCO3)C(=S)Nc1ccccc1` the Potency was inconclusive: 2.62 µM [inhibitor, partial curve, poor fit].
In the case of `O=C(COC(=O)[C@H](Cc1c[nH]c2ccccc12)NC(=O)c1cccs1)NCc1ccccc1`, the Potency is reported as “inactive”.
With `CC(=O)c1ccc(S(=O)(=O)N2CCn3cccc3C2C)cc1` (configuration not stated) the Potency was inconclusive: 0.0104 µM [inhibitor, full curve, poor fit].
With `O=C(CCN1C(=O)C2C3C=CC(C3)C2C1=O)Nc1nccs1` (configuration not stated) the Potency was inconclusive: 18.5 µM [inhibitor, single point].
In the case of `CCCn1c(-c2cccs2)nc2nc3ccccc3nc21`, the Potency is reported as inconclusive: 9.28 µM [inhibitor, partial curve].
In the case of `CC(C)CC1(C)NC(=O)NC1=O` (configuration not stated), the Potency is reported as inconclusive: 10.4 µM [inhibitor, single point].
In the case of `Cc1nn(C)c(C)c1S(=O)(=O)N1CCCC(C(=O)NC2CCCCC2)C1` (configuration not stated), the Potency is reported as inconclusive: 18.5 µM [inhibitor, single point].
For `Cc1ccc(S(=O)(=O)N2CCCCC2)cc1NC(=O)C1CC(=O)N(Cc2ccccc2)C1` (configuration not stated), the Potency was “inactive”.
For `C/C(=N\NC(=O)C1(C)CC1(Br)Br)c1ccc(NC(=O)c2ccc(C)o2)cc1` (configuration not stated), the Potency was active: 9.28 µM.
For `C[n+]1cn(Cc2ccc(C#N)cc2)c2ccccc21`, the Potency was inconclusive: 0.0738 µM [inhibitor, full curve, poor fit].
With `Cn1c(=O)c2c(nc(-n3ccnc3)n2Cc2ccccc2)n(C)c1=O` the Potency was inconclusive: 18.5 µM [inhibitor, single point].
With `CCCNS(=O)(=O)c1ccc(OCC(=O)Nc2ccc3c(c2)OCCO3)c(C)c1` the Potency was inconclusive: 4.15 µM [inhibitor, single point].
In the case of `O=C(C1CCCN(Cc2ccccc2Cl)C1)N1CCCCC1` (configuration not stated), the Potency is reported as “inactive”.
For `Cc1ccc2cc(CCNS(=O)(=O)c3ccc(F)cc3)c(=O)[nH]c2c1C`, the Potency was “inactive”.
In the case of `Cc1ccc2nc(N3CCN(S(=O)(=O)c4ccc5c(c4)OCCO5)CC3)c(C#N)cc2c1`, the Potency is reported as “inactive”.
With `CC(NC(=O)COC(=O)c1ccccc1Nc1ccccc1)c1ccccc1` (configuration not stated) the Potency was inconclusive: 0.928 µM [inhibitor, full curve, poor fit].
In the case of `O=C(CC12CC3CC(CC(Br)(C3)C1)C2)Nc1cccc(S(=O)(=O)NC2=NCCC2)c1`, the Potency is reported as inconclusive: 18.5 µM [inhibitor, single point].
With `COc1ccc(CCNc2ncnc3c2oc2ccccc23)cc1OC` the Potency was active: 2.94 µM.
In the case of `COc1cccc(C2CC(c3ccc(C)cc3)n3ncnc3N2)c1` (configuration not stated), the Potency is reported as inconclusive: 8.28 µM [inhibitor, partial curve].
For `CC(C)CNC(=O)COC(=O)c1cccc(S(=O)(=O)NCC(F)(F)F)c1`, the Potency was inconclusive: 2.33 µM [inhibitor, partial curve, poor fit].
In the case of `Cc1ccc(C(=O)N/C(=C\Cl)P(=O)(c2ccccc2)c2ccccc2)cc1`, the Potency is reported as inconclusive: 3.7 µM [inhibitor, full curve, poor fit].
With `CCc1ccc2nc3c(c(C(=O)O)c2c1)CCC3` the Potency was inconclusive: 3.29 µM [inhibitor, single point].
For `CCOc1cccc(/C=C/C(=O)O)c1`, the Potency was inconclusive: 18.5 µM [inhibitor, single point].
For `Cc1cc(C)nc(N(C#N)CC(=O)N(c2ccccc2)C(C)C)n1`, the Potency was inconclusive: 0.522 µM [inhibitor, full curve, poor fit].
In the case of `Cn1c(NC(=O)C[n+]2cc(-c3ccc(F)cc3)n3c2CCC3)cc(=O)n(C)c1=O`, the Potency is reported as active: 0.586 µM.
With `C=CCn1c(SCC(=O)Nc2cc(C)on2)nc2sc(C)c(C)c2c1=O` the Potency was “inactive”.
In the case of `CCOC(=O)[C@H]1[C@H]2COc3ccc(C)cc3[C@@H]2N2C(=O)CN(Cc3ccccc3)C(=O)[C@@]12C`, the Potency is reported as inconclusive: 13.1 µM [inhibitor, partial curve].
For `O=C1/C(=C\c2ccccc2)SC(=S)N1CCC(=O)N1CCCCC1CCO` (configuration not stated), the Potency was inconclusive: 4.65 µM [inhibitor, partial curve, poor fit].
For `c1ccc2c(CN3CCSCC3)cccc2c1`, the Potency was inconclusive: 18.5 µM [inhibitor, single point].
With `CCCCCCCC1CC(=O)C=C(C)C1C(=O)OCC` (configuration not stated) the Potency was inconclusive: 7.38 µM [inhibitor, partial curve].
In the case of `CCOC(=O)Cn1c(=O)oc2cc(S(=O)(=O)N(C)c3ccc(OC)cc3)ccc21`, the Potency is reported as “inactive”.
For `COCCNC(=O)c1cc2sccc2n1C`, the Potency was “inactive”.
With `COC(=O)c1cc(NC(=O)Cc2cccs2)cc(C(=O)OC)c1` the Potency was “inactive”.
With `COC(=O)C1=C(c2ccc(OC(F)(F)F)cc2)C[C@@H]2CC[C@H]1N2C(=O)NCCOc1ccccc1` the Potency was active: 4.65 µM.
For `CCNc1nc(NCC)nc(C(=O)OCCO)n1`, the Potency was “inactive”.
With `O=C(/C=C/c1ccccc1Cl)NC1CCCCC1` the Potency was “inactive”.
With `O=C(NCCc1nc2ccccc2[nH]1)C1CCC(=O)N(CCc2cccc(F)c2)C1` (configuration not stated) the Potency was inconclusive: 18.5 µM [inhibitor, single point].
